From article PMC10908866
Results are given in words; binding and its absence hold for the method and conditions named. Some results given as binding are weak or reduced against the parent protein; the word gives no strength.

Sequences of proteins named here, by UniProt entry; tags and fusion partners are left off. Residues count along the entry.
UniProt Q14244, residues 59-170: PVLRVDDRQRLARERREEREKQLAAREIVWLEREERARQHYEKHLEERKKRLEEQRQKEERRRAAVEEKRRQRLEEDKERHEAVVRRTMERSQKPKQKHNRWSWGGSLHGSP

B1: α-tubulin C-terminal tail peptide, residues Ser 439-Tyr 451 of HeLa S3 α-tubulin (peptide)
peptide: SVEGEGEEEGEEY
B2: β-tubulin C-terminal tail peptide, residues Asp 427-Ala 444 of HeLa S3 β-tubulin (peptide)
peptide: DATAEEEEDFGEEAEEEA

Columns and labels:
[1] = target: MAP7 microtubule-binding domain (MTBD), residues 59-170 (human) (UniProt Q14244); assay: NMR titration; increasing stoichiometric ratios of CTT peptide added to 80 µM [13C-15N] MAP7 MTBD; 1H-15N TROSY, 298 K, 900 MHz; 40 mM NaPi pH 6.5, 150 mM NaCl, 1 mM DTT; both purified
[2] = target: MAP7 microtubule-binding domain (MTBD), residues 59-170 (human) (UniProt Q14244); assay: NMR titration; [13C-15N] MAP7 MTBD with 10-fold α-CTT at 500 mM salt (series of salt concentrations); both purified

| Binder | binding [1] | binding [2] |
| --- | --- | --- |
| B1 | binds weakly | no binding (condition: 500 mM salt) |
| B2 | binds weakly | – |
